Laboratory results published in article doi:10.1101/840157.
No constants are given. Whether binding was seen depends on the method and setting. Binding seen in cells or lysates may run through a third protein. Some binding calls cover weakened binding; strength is not graded here. Sequences can lack the tags named with a protein. Values belong to the molecule of their own block, whether it stands above or below them.

The chains behind the UniProt entries cited, without tags or fusion partners.
UniProt P38903: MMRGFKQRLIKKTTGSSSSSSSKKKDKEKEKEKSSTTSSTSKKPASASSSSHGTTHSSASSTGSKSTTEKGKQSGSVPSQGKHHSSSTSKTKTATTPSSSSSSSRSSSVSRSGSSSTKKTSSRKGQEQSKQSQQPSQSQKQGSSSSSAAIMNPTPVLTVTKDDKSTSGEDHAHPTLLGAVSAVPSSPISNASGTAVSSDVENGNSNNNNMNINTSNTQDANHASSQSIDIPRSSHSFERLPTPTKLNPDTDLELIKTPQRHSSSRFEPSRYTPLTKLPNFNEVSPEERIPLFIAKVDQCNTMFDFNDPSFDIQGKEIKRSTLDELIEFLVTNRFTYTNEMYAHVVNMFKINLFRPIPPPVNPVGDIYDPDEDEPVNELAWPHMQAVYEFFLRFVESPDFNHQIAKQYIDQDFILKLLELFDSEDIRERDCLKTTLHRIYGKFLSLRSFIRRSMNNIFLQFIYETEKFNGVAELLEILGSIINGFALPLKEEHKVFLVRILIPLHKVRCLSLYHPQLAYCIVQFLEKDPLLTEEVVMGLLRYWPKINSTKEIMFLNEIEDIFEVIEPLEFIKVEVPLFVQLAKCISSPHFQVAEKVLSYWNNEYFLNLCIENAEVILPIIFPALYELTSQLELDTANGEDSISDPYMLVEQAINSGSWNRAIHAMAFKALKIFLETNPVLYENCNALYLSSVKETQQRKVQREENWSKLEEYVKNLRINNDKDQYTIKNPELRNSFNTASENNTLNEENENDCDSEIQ

Legend:
[1] = target: T1, Recombinant His7-V5-tagged Sgo1 (shugoshin), wild type, unSUMOylated (S. cerevisiae (budding yeast)) (UniProt Q08490); assay: pull-down
T1 sequence: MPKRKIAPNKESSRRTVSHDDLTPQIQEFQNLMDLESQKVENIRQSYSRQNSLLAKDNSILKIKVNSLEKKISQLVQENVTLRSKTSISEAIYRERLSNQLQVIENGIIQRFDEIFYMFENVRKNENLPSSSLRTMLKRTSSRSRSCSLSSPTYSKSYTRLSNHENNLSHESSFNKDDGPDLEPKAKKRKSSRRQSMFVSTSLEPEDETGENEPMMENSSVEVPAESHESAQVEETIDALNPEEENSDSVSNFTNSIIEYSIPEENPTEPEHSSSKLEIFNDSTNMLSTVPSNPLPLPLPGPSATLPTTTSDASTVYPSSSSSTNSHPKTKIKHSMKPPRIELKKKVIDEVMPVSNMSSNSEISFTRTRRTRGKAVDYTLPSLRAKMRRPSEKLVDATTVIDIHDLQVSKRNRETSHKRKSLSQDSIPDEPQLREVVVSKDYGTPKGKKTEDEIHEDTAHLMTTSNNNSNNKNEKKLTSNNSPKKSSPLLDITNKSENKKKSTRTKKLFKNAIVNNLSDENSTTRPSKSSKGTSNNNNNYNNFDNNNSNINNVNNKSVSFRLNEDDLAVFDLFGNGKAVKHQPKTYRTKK

[2] = target: Rts1-9Myc (regulatory subunit of PP2A-Rts1) (S. cerevisiae (budding yeast)) (UniProt P38903); assay: pull-down

binding [1]: binds
Molecule: Rts1-9Myc (regulatory subunit of PP2A-Rts1) (from UniProt P38903 1-757)

binding [2]: binds
B1: Recombinant His7-V5-tagged Sgo1 (shugoshin), wild type, unSUMOylated (protein, UniProt Q08490 1-590)
chain: T1 sequence
